Consider 47 compounds from patent publication US20180230398A1, “PERFUME SYSTEMS” (The Procter & Gamble Company, priority 2014, published 2018).

Counter-ions that a name gives are not always drawn.

This data set in a line: Character description (odour character) of the PRMs of Table 1. Conditions: odour character in words.
`CC(C)CCC(C)(C)C(C)O` (racemic) [Molecule 63, 3,3,6-trimethylheptan-2-(R,S)-ol]: the Character description entry is given as “herbal (lilac), citrus”. With `CC1=C(C)CC(C(=O)OCC(C)C)CC1` (centres unmarked) [Molecule 113, isobutyl 3,4-dimethylcyclohex-3-enecarboxylate] the entry was “green, garlic, fruity, citrus”; with `CCC[C@]1([C@@H](C)O)CCC(C)C(C)C1` (stereo partly drawn) [Molecule 69, (R,S)-1-(3,4-dimethyl-1-propylcyclohexyl) ethanol], “terpenic, earthy”. For `CCCOC(=O)C1CCC(C)=C(C)C1` (racemic) [Molecule 64, (R,S)-propyl 3,4-dimethyl-cyclohex-3-enecarboxylate], the Character description entry is reported as “white floral”. With `CC(C)=CCC1(CO)CCC(C)=C(C)C1` (racemic) [Molecule 134, (3,4-dimethyl-1-(R,S)-(3-methylbut-2-enyl)cyclohex-3-enyl)methanol] the entry was “herbal, woody, smoky”; with `CCCOC(=O)[C@@H]1CCC(C)[C@@H](C)C1` (stereo partly drawn) [Molecule 65, (R,S)-propyl 3,4-dimethylcyclohex-anecarboxylate], “fruity, floral”; with `CC1=C(C)CC(C(=O)OC(C)C)CC1` (racemic) [Molecule 146, (R,S)-isopropyl 3,4-dimethyl-cyclohex-3-enecarboxylate], “white floral, fresh, aldehydic”.

With `COC(=O)CCCC/C=C/C(C)C` [Molecule 8, methyl 8-methylnon-6-enoate], the Character description entry is given as “fruity”. With `CC(=O)OCC1(C)CCC(C)=C(C)C1` (racemic) [Molecule 73, (1-(R,S),3,4-trimethylcyclohex-3-enyl)methyl acetate] the entry was “spicy, acidic”. With `CCC(=O)C1(CC)CCC(C)=C(C)C1` (racemic) [Molecule 59, 1-(1-(R,S)-ethyl-3,4-dimethyl-cyclohex-3-enyl)propan-1-one] the entry was “herbal (coriander)”; with `CCCCC(=O)c1ccc(O)c(OCC)c1` [Molecule 32, 1-(3-ethoxy-4-hydroxyphenyl) pentan-1-one], “sweet powder”.

Consider `CCC(C)(CCC=C(C)C)C(C)=O` (racemic) [Molecule 12, 3-(R,S)-ethyl-3,7-dimethyloct-6-en-2-one], for which the Character description entry is reported as “woody, herbal (lavender)”. Turning to `CC1CC=CC[C@]1(C)[C@@H](C)OC=O` (stereo partly drawn) [Molecule 95, (R,S)-1-(1,6-dimethylcyclohex-3-enyl)ethyl formate], the Character description entry is recorded as “(soft) woody, spicy”. `CC1=C(C)CC2(CC1)COC(C)(C)OC2` [Molecule 121, 3,3,8,9-tetramethyl-2,4-dioxaspiro[5.5] undec-8-ene]: the Character description entry is given as “green”. The entry for `CC(=O)O[C@H](C)[C@@]1(C)CCC(C)C(C)C1` (stereo partly drawn) [Molecule 81, (R,S)-1-(1,3,4-trimethylcyclohex-yl)ethyl acetate] is “balsamic, sweet”; for `CCCCC(=O)C1(CC)CCC(C)=C(C)C1` (racemic) [Molecule 42, 1-(1-(R,S)-ethyl-3,4-dimethyl-cyclohex-3-en-1-yl)pentan-1-one] it is “chewing gum (fruity)”. With `CC(=O)O[C@H](C)[C@@]1(C)CC=CCC1C` (stereo partly drawn) [Molecule 99, (R,S)-1-(1,6-dimethylcyclohex-3-enyl)ethyl acetate] the entry was “violet, fruity”; with `CCOc1cc(C(=O)CC)ccc1O` [Molecule 31, 1-(3-ethoxy-4-hydroxyphenyl) propan-1-one], “sweet vanilla, heliotropine”. With `CC(C)=CCC(C)(C)COC=O` [Molecule 103, 2,2,5-trimethylhex-4-enyl formate], the Character description result is given as “citrus, gun powder”.

Take `CCC1(CO)CCC(C)=C(C)C1` (racemic) [Molecule 127, (1-(R,S)-ethyl-3,4-dimethyl-cyclohex-3-enyl)methanol]: the Character description result is “floral, lilac”. With `CCC1(C(C)O)CCC(C)=C(C)C1` (racemic) [Molecule 128, 1-(1-(R,S)-ethyl-3,4-dimethylcyclohex-3-enyl)ethanol] the entry was “floral, lilac”.

Regarding `Cc1cccc(CC(C)(C)COC=O)c1` [Molecule 104, 2,2-dimethyl-3-m-tolylpropyl formate], the Character description result was “citrus, lemon”. On to `COc1ccc(C=O)cc1OCC(C)C` [Molecule 39, 3-isobutoxy-4-methoxybenz-aldehyde], for which the Character description entry is “sweet”. The entry for `CC(C)OC(=O)[C@@H]1CCC(C)[C@@H](C)C1` (stereo partly drawn) [Molecule 62, (R,S)-isopropyl 3,4-dimethylcyclohex-anecarboxylate] is “fruity (banana)”; for `CCC(C)(C#N)CC=C(C)C` (racemic) [Molecule 16, 2-(R,S)-ethyl-2,5-dimethylhex-4-enenitrile] it is “herbal, minty (carway), spicy (celery)”. As to `Cc1ccc(CC2=CC[C@H]3C[C@@H]2C3(C)C)o1` [Molecule 5, 2-(((1R,5S)-6,6-dimethylbicyclo [3.1.1]hept-2-en-2-yl)methyl)-5-methylfuran], the Character description result is reported as “woody, terpenic”. The entry for `Cc1cccc(CC(C)(C)C(C)(C)O)c1` [Molecule 110, 2,3,3-trimethyl-4-m-tolylbutan-2-ol] is “dark chocolate”; for `CC(C)=CCC1(C(C)O)CCC(C)=C(C)C1` (racemic) [Molecule 56, 1-(R,S)-(3,4-dimethyl-1-(3-methylbut-2-enyl)cyclohex-3-enyl)ethanol] it is “herbal, citrus”. With `CCOc1cc(C(=O)C(C)C)ccc1O` [Molecule 37, 1-(3-ethoxy-4-hydroxyphenyl)-2-methylpropan-1-one] the entry was “sweet, phenolic, woody”; with `CCCC1(C(C)=O)CCC(C)=C(C)C1` (racemic) [Molecule 48, 1-(3,4-dimethyl-1-(R,S)-propyl-cyclohex-3-en-1-yl)ethanone], “fresh, citrus, floral, bergamot”; with `CCCCC1(C(C)O)CCC(C)=C(C)C1` (racemic) [Molecule 145, 1-(1-(R,S)-butyl-3,4-dimethylcyclohex-3-enyl)ethanol], “violet, calamus”. The entry for `CCCCC1(C#N)CCC(C)=C(C)C1` (racemic) [Molecule 143, 1-(R,S)-butyl-3,4-dimethyl-cyclohex-3-enecarbonitrile] is “floral (rose, violet), herbal”.

As to `COC(=O)C(C)(C)CC=C(C)C` [Molecule 100, methyl 2,2,5-trimethylhex-4-enoate], the Character description entry was “floral (chamomile), aromatic, citrus”.

Regarding `COc1ccc(C=O)cc1OC(C)C` [Molecule 30, 3-isopropoxy-4-methoxybenz-aldehyde], the Character description result is “nutty, roasted”. The entry for `C/C=C/C(=O)C1C(C)C(OC(C)=O)C=CC1(C)C` (centres unmarked) [Molecule 9, 5-(but-2-enoyl)-4,4,6-trimethylcyclohex-2-en-1-yl acetate] is “apple-rose ketone smell”; for `CC1CCCC[C@]1(C)[C@@H](C)O` (stereo partly drawn) [Molecule 97, (R,S)-1-(1,2-dimethyl-cyclohexyl)ethanol] it is “woody, earthy”.

Turning to `CC(=O)[C@]1(C)CC(C)C(C)C[C@@H]1C` (stereo partly drawn) [Molecule 87, (R,S)-1-(1,2,4,5-tetramethylcyclo-hexyl)ethanone], the Character description result was “woody, fruity”. Take `CC1CC=CC[C@]1(C)[C@@H](C)O` (stereo partly drawn) [Molecule 93, (R,S)-1-(1,6-dimethylcyclohex-3-enyl)ethanol]: the Character description result is “earthy (moss)”. The entry for `CC1=C(C)CC(C(C)(C)O)CC1` (racemic) [Molecule 125, 2-(3,4-dimethylcyclohex-3-enyl)-(R,S)-propan-2-ol] is “spicy (fenugreek)”. The entry for `C=CCC1(C(=O)OC)CCC(C)=C(C)C1` (racemic) [Molecule 137, methyl 1-(R,S)-allyl-3,4-dimethyl-cyclohex-3-enecarboxylate] is “green cucumber”; for `CC(C)=CCCC1(C#N)CCC(C)=C(C)C1` (racemic) [Molecule 28, 3,4-dimethyl-1-(R,S)-(4-methylpent-3-en-1-yl)cyclohex-3-enecarbonitrile] it is “green”.

As for `CC1=C(C)CC(CO)(C(C)C)CC1` (racemic) [Molecule 129, (1-(R,S)-isopropyl-3,4-dimethyl-cyclohex-3-enyl)methanol], the Character description entry was “floral, aromatic”. As to `CC1CC[C@@](C)(CO)C[C@@H]1C` (stereo partly drawn) [Molecule 68, (R,S)-(1,3,4-trimethylcyclohex-yl)methanol], the Character description result was “herbal, woody, clean”. The entry for `CCOc1cc(C(=O)C(C)CC)ccc1O` (centres unmarked) [Molecule 35, 1-(3-ethoxy-4-hydroxyphenyl)-2-methylbutan-1-one] is “sweet, almond, green”; for `CC1=C(C)CC(C)(C(C)(C)O)CC1` (racemic) [Molecule 138, 2-(1-(R,S)-,3,4-trimethylcyclohex-3-enyl)propan-2-ol] it is “floral”.

With `CC1CC[C@@H](CO)C[C@@H]1C` (stereo partly drawn) [Molecule 76, (R,S)-(3,4-dimethylcyclohex-yl)methanol], the Character description result is reported as “green (apple)”. The entry for `CNC(=O)C1(C)CCC(C)=C(C)C1` (racemic) [Molecule 139, N,1-(R,S),3,4-tetramethyl-cyclohex-3-enecarboxamide] is “solventy, fruity”.
